The source of these data is patent US9822148B2 (HOYA CORPORATION, priority 2012, dated 2017).

Plain letter strings leave the end groups untold.

The data set in a line: peptide made by a vendor. Conditions: whole synthesis.

For GAASRTYLHELI (Random peptide), the “final HPLC purity” value was found to be 90%<.
